Data from US20140370521A1, “IDENTIFICATION OF TWO NOVEL BIOMARKERS FOR NIEMANN-PICK DISEASE TYPE C” (The USA , as Represented by the Secretary, Department of …, priority 2011, published 2014).

B1: Gdf15 (protein, UniProt Q9Z0J7 189-303, looked up)
Growth/differentiation factor …: SAHAHPRDSCPLGPGRCCHLETVQATLEDLGWSDWVLSPRQLQLSMCVGECPHLYRSANTHAQIKARLHGLQPDKVPAPCCVPSSYTPVVLMHRTDSGVSLQTYDDLVARGCHCA
B2: Cxcl10 (protein, UniProt P17515 22-98, looked up)
C-X-C motif chemokine 10: IPLARTVRCNCIHIDDGPVRMRAIGKLEIIPASLSCPRVEIIATMKKNDEQRCLNPESKTIKNLMKAFSQKRSKRAP
B3: Hyal1 (protein, UniProt Q91ZJ9 53-462, looked up)
Hyaluronidase-1: SVVSNRPFITVWNGDTHWCLTEYGVDVDVSVFDVVANKEQSFQGSNMTIFYREELGTYPYYTPTGEPVFGGLPQNASLVTHLAHTFQDIKAAMPEPDFSGLAVIDWEAWRPRWAFNWDSKDIYRQRSMELVQAEHPDWPETLVEAAAKNQFQEAAEAWMAGTLQLGQVLRPRGLWGYYGFPDCYNNDFLSLNYTGQCPVFVRDQNDQLGWLWNQSYALYPSIYLPAALMGTEKSQMYVRHRVQEALRVAIVSRDPHVPVMPYVQIFYEMTDYLLPLEELEHSLGESAAQGVAGAVLWLSSDKTSTKESCQAIKAYMDSTLGPFIVNVTSAALLCSEALCSGHGRCVRHPSYPEALLTLNPASFSIELTHDGRPPSLKGTLSLKDRAQMAMKFRCRCYRGWRGKWCDKRGM
B4: C1qb (protein, UniProt P14106 26-253, looked up)
Complement C1q subcomponent …: QSSCTGPPGIPGIPGVPGVPGSDGQPGTPGIKGEKGLPGLAGDLGEFGEKGDPGIPGTPGKVGPKGPVGPKGTPGPSGPRGPKGDSGDYGATQKVAFSALRTINSPLRPNQVIRFEKVITNANENYEPRNGKFTCKVPGLYYFTYHASSRGNLCVNLVRGRDRDSMQKVVTFCDYAQNTFQVTTGGVVLKLEQEEVVHLQATDKNSLLGIEGANSIFTGFLLFPDMDA
B5: Ccl24 (protein, UniProt Q9JKC0 27-119, looked up)
C-C motif chemokine 24: VTIPSSCCTSFISKKIPENRVVSYQLANGSICPKAGVIFITKKGHKICTDPKLLWVQRHIQKLDAKKNQPSKGAKAVRTKFAVQRRRGNSTEV
B6: Cd14 (protein, UniProt P10810 16-336, looked up)
Monocyte differentiation …: SPAPPEPCELDEESCSCNFSDPKPDWSSAFNCLGAADVELYGGGRSLEYLLKRVDTEADLGQFTDIIKSLSLKRLTVRAARIPSRILFGALRVLGISGLQELTLENLEVTGTAPPPLLEATGPDLNILNLRNVSWATRDAWLAELQQWLKPGLKVLSIAQAHSLNFSCEQVRVFPALSTLDLSDNPELGERGLISALCPLKFPTLQVLALRNAGMETPSGVCSALAAARVQLQGLDLSHNSLRDAAGAPSCDWPSQLNSLNLSFTGLKQVPKGLPAKLSVLDLSYNRLDRNPSPDELPQVGNLSLKGNPFLDSESHSEKFN
B7: Csf3r (protein, UniProt P40223 26-837, looked up)
Granulocyte …: CGHIEISPPVVRLGDPVLASCTISPNCSKLDQQAKILWRLQDEPIQPGDRQHHLPDGTQESLITLPHLNYTQAFLFCLVPWEDSVQLLDQAELHAGYPPASPSNLSCLMHLTTNSLVCQWEPGPETHLPTSFILKSFRSRADCQYQGDTIPDCVAKKRQNNCSIPRKNLLLYQYMAIWVQAENMLGSSESPKLCLDPMDVVKLEPPMLQALDIGPDVVSHQPGCLWLSWKPWKPSEYMEQECELRYQPQLKGANWTLVFHLPSSKDQFELCGLHQAPVYTLQMRCIRSSLPGFWSPWSPGLQLRPTMKAPTIRLDTWCQKKQLDPGTVSVQLFWKPTPLQEDSGQIQGYLLSWSSPDHQGQDIHLCNTTQLSCIFLLPSEAQNVTLVAYNKAGTSSPTTVVFLENEGPAVTGLHAMAQDLNTIWVDWEAPSLLPQGYLIEWEMSSPSYNNSYKSWMIEPNGNITGILLKDNINPFQLYRITVAPLYPGIVGPPVNVYTFAGERAPPHAPALHLKHVGTTWAQLEWVPEAPRLGMIPLTHYTIFWADAGDHSFSVTLNISLHDFVLKHLEPASLYHVYLMATSRAGSTNSTGLTLRTLDPSDLNIFLGILCLVLLSTTCVVTWLCCKRRGKTSFWSDVPDPAHSSLSSWLPTIMTEETFQLPSFWDSSVPSITKITELEEDKKPTHWDSESSGNGSLPALVQAYVLQGDPREISNQSQPPSRTGDQVLYGQVLESPTSPGVMQYIRSDSTQPLLGGPTPSPKSYENIWFHSRPQETFVPQPPNQEDDCVFGPPFDFPLFQGLQVHGVEEQGGF
B8: Cxcl16 (protein, UniProt Q8BSU2 27-246, looked up)
C-X-C motif chemokine 16: NQGSVAGSCSCDRTISSGTQIPQGTLDHIRKYLKAFHRCPFFIRFQLQSKSVCGGSQDQWVRELVDCFERKECGTGHGKSFHHQKHLPQASTQTPEAAEGTPSDTSTPAHSQSTQHSTLPSGALSLNKEHTQPWEMTTLPSGYGLEARPEAEANEKQQDDRQQEAPGAGASTPAWVPVLSLLAIVFFLTAAMAYVLCNRRATQQNSAGLQLWYTPVEPRP
B9: Dcn (protein, UniProt P28654 31-354, looked up)
Decorin: DEASGIIPYDPDNPLISMCPYRCQCHLRVVQCSDLGLDKVPWDFPPDTTLLDLQNNKITEIKEGAFKNLKDLHTLILVNNKISKISPEAFKPLVKLERLYLSKNQLKELPEKMPRTLQELRVHENEITKLRKSDFNGLNNVLVIELGGNPLKNSGIENGAFQGLKSLSYIRISDTNITAIPQGLPTSLTEVHLDGNKITKVDAPSLKGLINLSKLGLSFNSITVMENGSLANVPHLRELHLDNNKLLRVPAGLAQHKYIQVVYLHNNNISAVGQNDFCRAGHPSRKASYSAVSLYGNPVRYWEIFPNTFRCVYVRSAIQLGNYK
B10: Lcn2 (protein, UniProt P11672 21-200, looked up)
Neutrophil …: QDSTQNLIPAPSLLTVPLQPDFRSDQFRGRWYVVGLAGNAVQKKTEGSFTMYSTIYELQENNSYNVTSILVRDQDQGCRYWIRTFVPSSRAGQFTLGNMHRYPQVQSYNVQVATTDYNQFAMVFFRKTSENKQYFKITLYGRTKELSPELKERFTRFAKSLGLKDDNIIFSVPTDQCIDN

The molecules below were run on Npc1-/- mouse liver (assay: Liver gene expression microarray, Npc1-/- versus control mice (Affymetrix Mouse GeneChip 1.0 ST)). Settings: 1 week of age, negative = lower in Npc1−/−.
B1 was tested, and the “FC (fold-change of expression between Npc1−/− and control mice)” value was 1.47.

Same assay, conditions: 3 weeks of age, negative = lower in Npc1−/−
B2 was tested, and the “FC (fold-change of expression between Npc1−/− and control mice)” value was 2.57.
B3 was tested, and the “FC (fold-change of expression between Npc1−/− and control mice)” value was −1.86.

Same assay, conditions: 5 weeks of age, negative = lower in Npc1−/−
With B4 the “FC (fold-change of expression between Npc1−/− and control mice)” value was 1.34.
For B5, the “FC (fold-change of expression between Npc1−/− and control mice)” value was −1.76.
For B6, the “FC (fold-change of expression between Npc1−/− and control mice)” value was 1.48.
In the case of B7, the “FC (fold-change of expression between Npc1−/− and control mice)” value is reported as 1.33.
For B2, the “FC (fold-change of expression between Npc1−/− and control mice)” value was 2.31.
With B8 the “FC (fold-change of expression between Npc1−/− and control mice)” value was 1.52.
B9 was tested, and the “FC (fold-change of expression between Npc1−/− and control mice)” value was 1.34.
With B1 the “FC (fold-change of expression between Npc1−/− and control mice)” value was 1.48.
B3 was tested, and the “FC (fold-change of expression between Npc1−/− and control mice)” value was −1.87.
For B10, the “FC (fold-change of expression between Npc1−/− and control mice)” value was 1.93.

Same assay, conditions: 7 weeks of age, negative = lower in Npc1−/−
With B4 the “FC (fold-change of expression between Npc1−/− and control mice)” value was 1.46.
For B5, the “FC (fold-change of expression between Npc1−/− and control mice)” value was −1.89.
B6 was tested, and the “FC (fold-change of expression between Npc1−/− and control mice)” value was 1.60.
In the case of B7, the “FC (fold-change of expression between Npc1−/− and control mice)” value is reported as 1.85.
B2 was tested, and the “FC (fold-change of expression between Npc1−/− and control mice)” value was 2.37.
For B8, the “FC (fold-change of expression between Npc1−/− and control mice)” value was 1.84.
With B9 the “FC (fold-change of expression between Npc1−/− and control mice)” value was 1.39.
With B3 the “FC (fold-change of expression between Npc1−/− and control mice)” value was −1.35.
With B10 the “FC (fold-change of expression between Npc1−/− and control mice)” value was 3.52.

Same assay, conditions: 11 weeks of age, negative = lower in Npc1−/−
For B4, the “FC (fold-change of expression between Npc1−/− and control mice)” value was 2.36.
In the case of B5, the “FC (fold-change of expression between Npc1−/− and control mice)” value is reported as −1.97.
B6 was tested, and the “FC (fold-change of expression between Npc1−/− and control mice)” value was 2.84.
B7 was tested, and the “FC (fold-change of expression between Npc1−/− and control mice)” value was 1.88.
With B8 the “FC (fold-change of expression between Npc1−/− and control mice)” value was 2.09.
In the case of B9, the “FC (fold-change of expression between Npc1−/− and control mice)” value is reported as 1.94.
In the case of B1, the “FC (fold-change of expression between Npc1−/− and control mice)” value is reported as 1.38.
With B10 the “FC (fold-change of expression between Npc1−/− and control mice)” value was 5.25.

Same assay, conditions: head prints "weeks" (column between 7 weeks and 11 weeks), negative = lower in Npc1−/−
In the case of B4, the “FC (fold-change of expression between Npc1−/− and control mice)” value is reported as 1.32.
In the case of B5, the “FC (fold-change of expression between Npc1−/− and control mice)” value is reported as −2.13.
For B6, the “FC (fold-change of expression between Npc1−/− and control mice)” value was 1.47.
B7 was tested, and the “FC (fold-change of expression between Npc1−/− and control mice)” value was 2.02.
B2 was tested, and the “FC (fold-change of expression between Npc1−/− and control mice)” value was 2.09.
With B8 the “FC (fold-change of expression between Npc1−/− and control mice)” value was 2.50.
B9 was tested, and the “FC (fold-change of expression between Npc1−/− and control mice)” value was 1.70.
For B1, the “FC (fold-change of expression between Npc1−/− and control mice)” value was 1.65.
In the case of B3, the “FC (fold-change of expression between Npc1−/− and control mice)” value is reported as −1.45.
In the case of B10, the “FC (fold-change of expression between Npc1−/− and control mice)” value is reported as 4.46.

What was measured is the transcript of the gene that encodes the chain shown.
